Measurements published in patent publication US10933132B2, “Combination of epigenetic factors and bispecific compounds targeting CD33 and CD3 in the treatment of myeloid leukemia” (AMGEN RESEARCH (MUNICH) GMBH, priority 2013, dated 2021).
For at least one compound, name, drawing or mass did not settle the structure.

Legend:
OCI-AML3 cells = experiment: CD33 expression by flow cytometry (PE anti-CD33 P67.6) after pretreatment with epigenetic drug; format: cell-based, human; details: 3-day pretreatment, relative to untreated
KG-1a cells = experiment: as above; format: cell-based, human; details: 3-day pretreatment, relative to untreated

With `Cc1[nH]c2ccccc2c1CCNCc1ccc(/C=C/C(=O)NO)cc1` [panobinostat] the CD33 expression (OCI-AML3 cells) was “significant increase” and the CD33 expression (KG-1a cells) was “markedly”.
